Here are results for 38 sequences from PMC7862700.

Protein sequences, listed by entry. Tags and fused reporters are not part of them. Lines headed by an entry give the natural chain unless they say otherwise; changes in a name come on top.
UniProt Q00613: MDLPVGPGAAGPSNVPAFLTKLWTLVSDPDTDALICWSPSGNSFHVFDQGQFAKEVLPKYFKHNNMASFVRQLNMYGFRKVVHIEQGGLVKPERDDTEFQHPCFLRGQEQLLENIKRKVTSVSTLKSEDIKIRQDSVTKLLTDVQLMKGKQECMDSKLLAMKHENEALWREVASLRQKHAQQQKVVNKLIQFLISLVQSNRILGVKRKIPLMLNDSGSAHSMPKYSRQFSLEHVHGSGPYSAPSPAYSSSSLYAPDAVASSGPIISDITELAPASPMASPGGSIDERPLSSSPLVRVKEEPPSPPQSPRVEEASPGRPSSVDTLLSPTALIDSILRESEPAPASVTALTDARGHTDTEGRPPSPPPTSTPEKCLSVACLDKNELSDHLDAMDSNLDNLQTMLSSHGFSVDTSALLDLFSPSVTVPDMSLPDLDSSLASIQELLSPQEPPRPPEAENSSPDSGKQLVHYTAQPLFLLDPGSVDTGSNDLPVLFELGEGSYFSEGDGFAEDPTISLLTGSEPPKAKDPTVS

This is a selection; strong and weak results do not stand in their true shares. For some of these results: At the low end of the ranking, values are background and their order means little. The list shows a part of the results. For some of these results: The exact form of the protein is not confirmed.

One assay has as its target HSF1 (UniProt Q00613). Nature of the assay: DAPPL (digital affinity profiling via proximity ligation, sequencing). The settings on record: 10 mM Tris-HCl pH 7.5, 50 mM NaCl, 1 mM DTT, 4% glycerol, room temperature, 30 min; GST-TFs on glutathione beads, 16-mer random dsDNA library, 0.1% …; high values mean tight binding; double strand, one strand shown; scale: fold enrichment (6-mer frequency, TF over GST control).

For a further assay, the target named is T1, ELF2 (UniProt Q15723).
T1 sequence: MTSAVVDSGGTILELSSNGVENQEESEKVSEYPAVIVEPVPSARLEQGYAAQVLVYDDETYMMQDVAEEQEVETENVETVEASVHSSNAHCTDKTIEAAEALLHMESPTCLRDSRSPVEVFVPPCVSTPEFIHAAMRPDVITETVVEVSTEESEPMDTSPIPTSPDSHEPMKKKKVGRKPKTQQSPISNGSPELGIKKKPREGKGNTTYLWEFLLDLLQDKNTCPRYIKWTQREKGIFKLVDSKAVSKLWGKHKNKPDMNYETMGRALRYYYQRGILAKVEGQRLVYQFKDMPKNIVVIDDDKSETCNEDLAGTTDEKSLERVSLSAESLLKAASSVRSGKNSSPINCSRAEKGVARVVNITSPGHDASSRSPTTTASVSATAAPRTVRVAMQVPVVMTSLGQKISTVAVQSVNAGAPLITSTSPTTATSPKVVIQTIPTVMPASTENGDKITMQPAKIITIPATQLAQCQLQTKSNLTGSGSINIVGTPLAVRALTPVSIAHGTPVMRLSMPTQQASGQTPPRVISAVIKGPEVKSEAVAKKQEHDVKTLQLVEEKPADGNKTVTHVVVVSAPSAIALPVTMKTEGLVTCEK
The assay is described as above. The settings on record: 10 mM Tris-HCl pH 7.5, 50 mM NaCl, 1 mM DTT, 4% glycerol, room temperature, 30 min; GST-TFs on glutathione beads, 16-mer random dsDNA library, 0.1% …; high values mean tight binding; double strand, one strand shown; scale: fold enrichment (6-mer frequency, TF over GST control).

For CGCCAA, the figures for the binding signal with HSF1 and in the assay with ELF2 were 0.89 and 0.981, respectively.
On the same counts, the results for CGCGTA are 0.991 and 0.968.
For the sequence TTACTT, the figures for the binding signal in the assay with HSF1 and with ELF2 were 1.41 and 1.73, respectively.
The like results for CTATGC were, in that order, 1.28 and 1.34.
The like results for GCCTGA were, in that order, 0.974 and 0.943.
Consider CGTCTT, for which the binding signal in the assay with HSF1 was found to be 1.31; with ELF2, 1.37.
The like results for AAGCGC were, in that order, 1.08 and 1.2.
The like results for CGTCCA were, in that order, 0.949 and 0.993.
The like results for AGCGCC were, in that order, 0.908 and 1.02.
For CGCCCA, the binding signal in the assay with HSF1 turned out to be 0.892; with ELF2 it was 1.01.
The like results for TTTCAT were, in that order, 1.13 and 1.13.
For the sequence TGGTGC, the binding signal with HSF1 is 0.789; with ELF2 it was 1.06.
Take ACCCTT: the binding signal was found to be 1.09 with HSF1 and 1.22 with ELF2.
On the same counts, the results for TCATAG are 0.93 and 0.865.
On to TCTATT, for which the binding signal with HSF1 is 1.43; in the assay with ELF2, 1.23.
In the case of ACGACC, the values for the binding signal with HSF1 and in the assay with ELF2 were 0.951 and 1.16, respectively.
The like results for TCCAGC were, in that order, 1.44 and 0.922.
The like results for GCGATT were, in that order, 1.23 and 0.933.
The like results for TGGAAG were, in that order, 1.56 and 0.968.
Take CTCGAA: the binding signal with HSF1 was determined as 4.2; in the assay with ELF2 it was 1.13.
GCGAAA: the binding signal worked out at 1.26 with HSF1 and 0.947 in the assay with ELF2.
The like results for GCCCCG were, in that order, 0.879 and 1.03.
On the same counts, the results for TGTCTA are 1.15 and 1.11.
The like results for ATTGGT were, in that order, 1.12 and 1.18.
Regarding ATAGTC, the binding signal with HSF1 worked out at 0.946; with ELF2 it was 0.903.
The like results for AGTTTC were, in that order, 1.38 and 1.36.
On the same counts, the results for ACCGTT are 0.876 and 0.949.
The like results for AAGTTG were, in that order, 0.908 and 1.15.
Consider CCTTGC, for which the binding signal was determined as 1.04 with HSF1 and 1.26 in the assay with ELF2.
On the same counts, the results for CGCTTG are 0.906 and 1.
On the same counts, the results for AGTATG are 0.902 and 1.02.
Consider TGTCAA, for which the binding signal with HSF1 turned out to be 0.853; in the assay with ELF2, 0.977.
The like results for AACAAG were, in that order, 1.03 and 1.16.
The like results for AGCTCA were, in that order, 1.22 and 1.1.
The like results for CTACAT were, in that order, 1.17 and 1.37.
In the case of CCTCGG, the binding signal was 0.992 with HSF1 and 1.11 with ELF2.
The like results for TGCAAG were, in that order, 0.94 and 0.999.
For the sequence GATCAC, the values for the binding signal with HSF1 and in the assay with ELF2 were 0.951 and 0.918, respectively.
